Measurements published in EP1290011B1 (Oncopeptides AB, priority 2000, dated 2001).
Structures can show the parent of a compound that is named as a salt. At least one compound was matched to its structure with a doubt left.

Tested on: 8226S
Assay type: cell-based, human
Conditions: myeloma, 72 hours incubation

For CCOC(=O)[C@H](Cc1ccc(N(CCCl)CCCl)cc1)NC(=O)[C@@H](N)Cc1ccc(N(CCCl)CCCl)cc1 [JV27, L-Melphalanyl-L-melphalan ethyl ester hydrochloride], the IC50 was 1.01 µM.
